These are yes or no findings as the source states them, for the method shown. In cells and extracts the contact can be indirect. Some results given as binding are weak or reduced against the parent protein; the word gives no strength. Sequences can lack the tags named with a protein.
Biological target: T1, EIN2C^479–1294 fused to Cerulean (Arabidopsis thaliana) (UniProt Q9S814)
T1 sequence: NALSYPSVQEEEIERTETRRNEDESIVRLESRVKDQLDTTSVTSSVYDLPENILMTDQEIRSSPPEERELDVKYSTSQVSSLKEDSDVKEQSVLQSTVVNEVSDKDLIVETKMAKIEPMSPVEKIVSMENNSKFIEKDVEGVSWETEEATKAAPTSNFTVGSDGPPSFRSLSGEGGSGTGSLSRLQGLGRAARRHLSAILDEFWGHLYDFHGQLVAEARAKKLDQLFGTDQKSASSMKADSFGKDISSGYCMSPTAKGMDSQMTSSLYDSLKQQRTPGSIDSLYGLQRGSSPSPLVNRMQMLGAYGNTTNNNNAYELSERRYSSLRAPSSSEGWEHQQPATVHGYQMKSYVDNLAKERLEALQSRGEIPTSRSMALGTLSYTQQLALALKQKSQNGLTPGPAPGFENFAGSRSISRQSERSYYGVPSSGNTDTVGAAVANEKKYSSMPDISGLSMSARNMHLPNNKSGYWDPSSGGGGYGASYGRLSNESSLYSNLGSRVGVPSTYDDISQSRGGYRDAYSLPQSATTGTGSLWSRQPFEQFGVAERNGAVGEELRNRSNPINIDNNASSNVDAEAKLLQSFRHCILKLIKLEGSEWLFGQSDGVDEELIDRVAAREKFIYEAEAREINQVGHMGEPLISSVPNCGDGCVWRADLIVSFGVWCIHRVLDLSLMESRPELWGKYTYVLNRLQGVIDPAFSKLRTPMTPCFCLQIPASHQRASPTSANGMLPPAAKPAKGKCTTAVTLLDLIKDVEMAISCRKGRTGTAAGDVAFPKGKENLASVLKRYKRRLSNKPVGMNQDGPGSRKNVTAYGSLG
Assay: FRET or BRET; in planta FLIM-FRET in transiently transformed N. benthamiana epidermal leaf cells; Cerulean fusion as donor, YFP fusions as acceptors; cytosol, ER or nucleus (IMPα5-YFP and IMPα6-YFP: nuclei only)

B1: IMPα6 fused to YFP (protein, UniProt Q9FWY7 1-538)
chain: MSYKPSAKTEVRRNRYKVSVDADEGRRRREDNMVEIRKNKREENLQKKRREGFNPSMASQPGQDFSSSLPTETRLENIQQMIAGVMSEDRDLQLEATASFRRLLSIERNPPINEVVQSGVVPHIVQFLSRDDFTQLQFEAAWALTNIASGTSENTRVIIDSGAVPLFVKLLSSASEEVREQAVWALGNVAGDSPKCRDHVLSCEAMMSLLAQFHEHSKLSMLRNATWTLSNFCRGKPQPAFEQTKAALPALERLLHSTDEEVLTDASWALSYLSDGTNEKIQTVIDAGVIPRLVQLLAHPSPSVLIPALRTIGNIVTGDDIQTQAVISSQALPGLLNLLKNTYKKSIKKEACWTISNITAGNTSQIQEVFQAGIIRPLINLLEIGEFEIKKEAVWAISNATSGGNHDQIKFLVSQGCIRPLCDLLPCPDPRVVTVTLEGLENILKVGEAEKNLGNTGNDNLYAQMIEDADGLDKIENLQSHDNNEIYEKAVKILESYWAADDEEEDIGGVDAPENVQSSGFQFGNQSGNAPTGGFNFG
With B1 the binding was “binds”.

B2: IMPα7 fused to YFP (protein, UniProt Q9M9X7 1-528)
chain: MKGGETMSVRRSGYKAVVDGVGGRRRREDDMVEIRKAKREESLLKKRREALPHSPSADSLDQKLISCIWSDERDLLIEATTQIRTLLCGEMFNVRVEEVIQAGLVPRFVEFLTWDDSPQLQFEAAWALTNIASGTSENTEVVIDHGAVAILVRLLNSPYDVVREQVVWALGNISGDSPRCRDIVLGHAALPSLLLQLNHGAKLSMLVNAAWTLSNLCRGKPQPPFDQVSAALPALAQLIRLDDKELLAYTCWALVYLSDGSNEKIQAVIEANVCARLIGLSIHRSPSVITPALRTIGNIVTGNDSQTQHIIDLQALPCLVNLLRGSYNKTIRKEACWTVSNITAGCQSQIQAVFDADICPALVNLLQNSEGDVKKEAAWAICNAIAGGSYKQIMFLVKQECIKPLCDLLTCSDTQLVMVCLEALKKILKVGEVFSSRHAEGIYQCPQTNVNPHAQLIEEAEGLEKIEGLQSHENNDIYETAVKILETYWMEEEEEEDQEQQDMIYFPVDNFANMPTSSGTLSEMHCGP
B2 was tested, and the binding was “binds”.
